The supplement of paper PMC7646827
Counter-ions that a name gives are not always drawn. Single values are uncertain, as repeats are few or missing.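 All cells are established human bladder cancer lines, one of them grown from a patient-derived xenograft. Viability was read by a luminescent ATP assay as percent inhibition versus vehicle over a seven-point dilution series; the paper calls scores above 59 very active, 30–59 active, 21–29 semi-active, 9–20 low active and below 9 inactive.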

Key:
Assay in all cases: drug sensitivity score DSS3 (score 0-100); higher = more sensitive; extreme values may be limits of the assay
Conditions in all cases: culture: 3D, ultra-low attachment; treatment time: 5 days
[1] = system: UM-UC-1
[2] = system: UM-UC-3
[3] = system: SW780
[4] = system: TCCSUP
[5] = system: UM-UC-9
[6] = system: J82
[7] = system: BC8149
[8] = system: 5637
[9] = system: UM-UC-5
[10] = system: UM-UC-18
[11] = system: UM-UC-15
[12] = system: SCaBER
[13] = system: UM-UC-17
[14] = system: T-24
[15] = system: UM-UC-6
[16] = system: UM-UC-12
[17] = system: UM-UC-14

SMILES	drug sensitivity score DSS3 [1]	drug sensitivity score DSS3 [2]	drug sensitivity score DSS3 [3]	drug sensitivity score DSS3 [4]	drug sensitivity score DSS3 [5]	drug sensitivity score DSS3 [6]	drug sensitivity score DSS3 [7]	drug sensitivity score DSS3 [8]	drug sensitivity score DSS3 [9]	drug sensitivity score DSS3 [10]	drug sensitivity score DSS3 [11]	drug sensitivity score DSS3 [12]	drug sensitivity score DSS3 [13]	drug sensitivity score DSS3 [14]	drug sensitivity score DSS3 [15]	drug sensitivity score DSS3 [16]	drug sensitivity score DSS3 [17]
Nc1ccc(C(=O)Nc2cccc(-c3nc(N4CCOCC4)c4oc5ncccc5c4n3)c2)cn1 (max dose 10000 nM)	0.986	1.07	0	0	0	0	0.579	0.278	3.88	0	0	0	0	0	0	0	0.639
CCC(C)(C)C(=O)O[C@H]1C[C@@H](C)C=C2C=C[C@H](C)[C@H](CC[C@@H]3C[C@@H](O)CC(=O)O3)[C@H]21 [Simvastatin] (max dose 10000 nM)	0	0	0	0	0	0	0	0	0	0	0	0	0	0	0	0	0
C=CC(=O)N1CCC[C@@H](n2nc(-c3ccc(Oc4ccccc4)cc3)c3c(N)ncnc32)C1 (max dose 10000 nM)	0.158	6.74	0	1.27	0.463	0	0	2.5	0	10.3	0	5.47	0	0	0	5.24	1.34
Cc1ccc(S(=O)(=O)/C=C/C#N)cc1 [BAY 11-7082] (max dose 10000 nM)	0.871	1.18	0	1.15	1.12	0	3.73	8.88	0.241	0.93	0	1.56	0	0.154	0.107	0.517	0
C[C@@H](Nc1cc(F)cc(F)c1)c1cc(C(=O)N(C)C)cc2c(=O)cc(N3CCOCC3)oc12 [AZD8186] (max dose 10000 nM)	12.9	17.6	10.6	7.28	16.8	8.35	11.8	14.5	3.91	7.1	4.67	11.8	9.14	0	0.501	14.2	9.49
CCOc1nc2cccc(C(=O)OCc3oc(=O)oc3C)c2n1Cc1ccc(-c2ccccc2-c2noc(=O)[nH]2)cc1 [Azilsartan Medoxomil] (max dose 10000 nM)	0	0	0	0	0	0	0	0	0	0	0	0	0	0	0	0	0
C[C@@H]1C[C@H]2[C@@H]3CCC4=CC(=O)C=C[C@]4(C)[C@@]3(F)[C@@H](O)C[C@]2(C)[C@@]1(O)C(=O)CO [Dexamethasone (DHAP)] (max dose 10000 nM)	0	16.1	0	0	0	0	0	0	0	0	0	0	0	0	0	0	0
Nc1nc(Nc2ccc(S(N)(=O)=O)cc2)nn1C(=O)c1c(F)cccc1F (max dose 10000 nM)	12.9	6.95	11.4	36.7	5.39	0	5.54	19.8	0	15.1	0	9.68	19.3	0	9.73	0	10
O=C(Nc1ccncc1)c1cc([N+](=O)[O-])ccc1Cl (max dose 10000 nM)	0	0	0	0	0	0	0	0	0	3.78	0	0	0	0	0	0	0
CC(C)C[C@H](NC(=O)[C@H](Cc1ccccc1)NC(=O)c1cnccn1)B(O)O [Bortezomib] (max dose 10000 nM)	88.2	56.4	82.8	89	84.3	87.6	78.7	73.2	81.4	72.7	73.3	87.8	89	53.8	74	91.9	85.9
COc1cccc(NC(=O)/C=C/c2ccc(Cl)cc2)c1 (max dose 10000 nM)	0	0	0	0	0.818	0	0	0	0.628	0	0	0	0	0	0	0	0
CC(C)(C)OC(=O)Nc1ccc(-c2cc(C(=O)NCCCCCCC(=O)NO)no2)cc1 (max dose 10000 nM)	2.44	7.7	0.833	4.84	1.39	1.27	11.3	5.12	0	7.84	27.4	2.82	0	13	1.67	6.5	3.35
Nc1nc(Cl)nc2c1ncn2[C@H]1C[C@H](O)[C@@H](CO)O1 [Cladribine] (max dose 10000 nM)	10	4.05	0.591	28.6	3.24	18.2	8.64	16.9	0	27.1	0	0.805	18.2	1.6	7.88	0.0566	3.17
CC(O)Cn1cnc2c1c(=O)n(C)c(=O)n2C (stereo not drawn) [Proxyphylline] (max dose 10000 nM)	0	0	0	0	0	0	0	0.0672	0	0.168	0	0	0	0	0	0	0
Cc1c(NC(=O)OC[C@@H]2COCCN2)cn2ncnc(Nc3ccc4c(cnn4Cc4cccc(F)c4)c3)c12 [AC480] (max dose 10000 nM)	0	0.29	0	0.198	0	0	0	1.46	0	0	0	3.39	0	0	0.85	0	0
CCN(CCO)CCCC(C)Nc1ccnc2cc(Cl)ccc12 (stereo not drawn) [Hydroxychloroquine Sulfate] (max dose 10000 nM)	0	0	0	0	0	0	5.21	0	0	0	0	0	0	0	0	0	0
CC(=O)O[C@]1(C(C)=O)CC[C@H]2[C@@H]3C[C@H](C)C4=CC(=O)CC[C@]4(C)[C@H]3CC[C@@]21C [Medroxyprogesterone acetate] (max dose 10000 nM)	0	0	0	0	0	0	0	0	0	0	0	0	0	0	0	0	0
COC1CCN(C(=O)c2cc(Cc3n[nH]c(=O)c4ccccc34)ccc2F)CC1 [AZD2461] (max dose 10000 nM)	0	0	0	2.46	0	0	0	0.272	0	0	0	1.43	0	0	0.651	0	0.0326
O=C(O)c1ccc2c(c1)nc(Nc1cccc(Cl)c1)c1ccncc12 [CX-4945 (Silmitasertib)] (max dose 10000 nM)	0	0	0	0	0	0	1.11	0.694	0	0	0	0.582	0	0	0	0	0
CC[C@H](CO)Nc1nc(NCc2ccccc2)c2ncn(C(C)C)c2n1 [Roscovitine (Seliciclib,CYC202)] (max dose 10000 nM)	7.18	2.31	6.56	30.9	0	3.45	18	22.5	0	8.54	0	6.68	8.76	0	0	3.41	8.62
Clc1ccc(CCCOCCCN2CCCCC2)cc1 [Pitolisant hydrochloride] (max dose 10000 nM)	0	0	0.441	0	0	0	0.105	0	0.0775	0	0	0	0	0	1.84	0.125	0
O=[N+]([O-])c1ccc2c(c1)S(=O)(=O)C=C2 [Stattic] (max dose 10000 nM)	0.438	0.485	0.8	0.797	0.0904	0	1.56	0.743	0.195	0.119	0.464	0	0	0.0293	1.25	0	0
O=C(O)CNC(=O)c1c(O)c2ccccc2n(Cc2ccccc2)c1=O [IOX2] (max dose 10000 nM)	0	0	0	0	0	0	0	0	0	0	0	0	0	0.153	0	0	0
Cc1c(-c2ccnn2C)cc(C(=O)NCc2ccc(S(C)(=O)=O)cn2)c(=O)n1-c1cccc(C(F)(F)F)c1 [Alvelestat (AZD9668)] (max dose 10000 nM)	0	0	0	0	0	0	0	0	0	0	0	0	0	0	0	0	0

Individual results from the entries so far.
For drug sensitivity score DSS3 [10], CC(=O)O[C@]1(C(C)=O)CC[C@H]2[C@@H]3C[C@H](C)C4=CC(=O)CC[C@]4(C)[C@H]3CC[C@@]21C [Medroxyprogesterone acetate] (max dose 10000 nM) has the entry 0
For drug sensitivity score DSS3 [14], Clc1ccc(CCCOCCCN2CCCCC2)cc1 [Pitolisant hydrochloride] (max dose 10000 nM) has the entry 0
